This is one part of the list.
Key:
Test in all cases: log2 fold change, soluble protein after heating vs DMSO (PISA); higher = thermal stabilisation; K562 lysate, 10 uM; active = over 0.2 and 3.5 SD of the protein, either way, in both replicates (recomputed)
lapatinib = compound: CS(=O)(=O)CCNCc1ccc(-c2ccc3ncnc(Nc4ccc(OCc5cccc(F)c5)c(Cl)c4)c3c2)o1 [lapatinib]
In short: (§1)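 Pellets of K562 cells were dounce-homogenised in PBS pH 7.4 with 1 mM MgCl2, and the crude extract was held at 1 mg/mL protein for a 30 min treatment with 10 μM compound. Aliquots were heated for 3 min over 48°C-58°C and pooled before NP-40 was added to 0.5% at 4°C. The supernatant from 21,000xg for 90 min was quantified by TMTpro 16plex LC-MS/MS with channel sums equalised. Values are reported from duplicates as log-two fold change in thermal stability relative to solvent controls.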

Chains of the proteins cited; added tags and fusions are not shown. Lines headed by an entry give the natural chain unless they say otherwise; changes in a name come on top.
UniProt Q32NC0: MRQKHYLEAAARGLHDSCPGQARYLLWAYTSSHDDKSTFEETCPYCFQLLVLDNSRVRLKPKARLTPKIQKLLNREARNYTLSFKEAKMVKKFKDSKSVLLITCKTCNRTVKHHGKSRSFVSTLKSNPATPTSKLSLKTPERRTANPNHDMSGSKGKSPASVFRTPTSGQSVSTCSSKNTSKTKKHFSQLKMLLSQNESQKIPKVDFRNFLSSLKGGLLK
UniProt Q6P5X5: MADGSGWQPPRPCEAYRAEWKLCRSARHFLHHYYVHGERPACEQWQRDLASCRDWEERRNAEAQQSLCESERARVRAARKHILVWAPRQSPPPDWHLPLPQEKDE
UniProt Q9Y6J0: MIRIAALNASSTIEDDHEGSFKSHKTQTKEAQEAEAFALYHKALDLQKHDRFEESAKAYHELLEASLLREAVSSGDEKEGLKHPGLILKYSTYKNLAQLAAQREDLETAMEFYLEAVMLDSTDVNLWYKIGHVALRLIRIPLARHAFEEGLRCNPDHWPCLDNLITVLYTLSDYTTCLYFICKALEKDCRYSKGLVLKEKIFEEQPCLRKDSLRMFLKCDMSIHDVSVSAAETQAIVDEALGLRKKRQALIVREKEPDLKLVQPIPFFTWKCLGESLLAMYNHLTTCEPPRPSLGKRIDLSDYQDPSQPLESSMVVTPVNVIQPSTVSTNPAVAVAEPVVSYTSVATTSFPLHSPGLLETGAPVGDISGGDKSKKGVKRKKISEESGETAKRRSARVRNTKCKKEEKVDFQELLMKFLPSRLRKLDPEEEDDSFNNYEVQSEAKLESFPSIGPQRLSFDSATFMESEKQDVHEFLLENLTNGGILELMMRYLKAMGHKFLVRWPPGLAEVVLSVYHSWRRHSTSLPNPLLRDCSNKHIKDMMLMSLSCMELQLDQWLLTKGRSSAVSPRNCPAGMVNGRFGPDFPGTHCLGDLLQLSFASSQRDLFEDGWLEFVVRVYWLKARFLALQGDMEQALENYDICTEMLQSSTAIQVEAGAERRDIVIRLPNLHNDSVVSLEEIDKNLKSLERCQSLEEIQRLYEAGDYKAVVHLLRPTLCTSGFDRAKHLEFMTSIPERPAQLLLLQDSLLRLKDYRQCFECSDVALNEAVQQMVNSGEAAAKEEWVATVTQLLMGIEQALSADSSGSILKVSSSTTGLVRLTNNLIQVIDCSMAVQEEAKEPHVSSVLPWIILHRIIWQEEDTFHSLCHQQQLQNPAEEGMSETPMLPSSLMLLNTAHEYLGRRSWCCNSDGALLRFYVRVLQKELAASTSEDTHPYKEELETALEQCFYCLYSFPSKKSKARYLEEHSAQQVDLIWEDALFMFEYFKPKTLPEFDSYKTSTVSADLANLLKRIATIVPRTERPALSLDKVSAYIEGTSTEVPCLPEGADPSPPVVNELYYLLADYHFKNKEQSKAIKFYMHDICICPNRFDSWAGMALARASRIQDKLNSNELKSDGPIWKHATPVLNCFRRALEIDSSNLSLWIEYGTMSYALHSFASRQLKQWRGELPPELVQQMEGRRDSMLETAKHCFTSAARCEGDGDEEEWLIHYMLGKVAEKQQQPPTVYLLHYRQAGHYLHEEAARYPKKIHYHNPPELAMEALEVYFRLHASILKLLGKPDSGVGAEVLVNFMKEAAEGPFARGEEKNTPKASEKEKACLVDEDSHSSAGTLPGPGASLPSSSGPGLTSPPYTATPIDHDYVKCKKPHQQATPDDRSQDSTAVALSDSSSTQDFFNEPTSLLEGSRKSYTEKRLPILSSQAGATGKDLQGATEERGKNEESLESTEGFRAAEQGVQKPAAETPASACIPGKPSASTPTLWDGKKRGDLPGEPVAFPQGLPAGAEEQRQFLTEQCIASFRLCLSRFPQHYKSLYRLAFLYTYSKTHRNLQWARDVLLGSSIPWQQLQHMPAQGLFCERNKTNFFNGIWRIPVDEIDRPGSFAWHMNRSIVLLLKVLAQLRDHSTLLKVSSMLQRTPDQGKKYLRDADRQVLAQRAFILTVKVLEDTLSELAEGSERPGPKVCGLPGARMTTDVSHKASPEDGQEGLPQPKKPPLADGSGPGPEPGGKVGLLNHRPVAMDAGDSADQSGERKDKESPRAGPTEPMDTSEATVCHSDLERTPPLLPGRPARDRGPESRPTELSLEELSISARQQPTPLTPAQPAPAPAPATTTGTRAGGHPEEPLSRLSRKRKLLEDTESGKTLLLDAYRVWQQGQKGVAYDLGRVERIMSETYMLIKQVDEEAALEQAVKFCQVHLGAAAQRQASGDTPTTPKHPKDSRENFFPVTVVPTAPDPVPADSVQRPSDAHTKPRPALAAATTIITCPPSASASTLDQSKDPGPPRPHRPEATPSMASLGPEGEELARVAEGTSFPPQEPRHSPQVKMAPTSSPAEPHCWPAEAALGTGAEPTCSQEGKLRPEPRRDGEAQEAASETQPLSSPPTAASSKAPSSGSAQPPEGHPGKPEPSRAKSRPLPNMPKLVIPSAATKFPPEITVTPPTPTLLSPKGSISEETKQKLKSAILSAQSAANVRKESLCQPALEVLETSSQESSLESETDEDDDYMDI
UniProt Q7Z7L8: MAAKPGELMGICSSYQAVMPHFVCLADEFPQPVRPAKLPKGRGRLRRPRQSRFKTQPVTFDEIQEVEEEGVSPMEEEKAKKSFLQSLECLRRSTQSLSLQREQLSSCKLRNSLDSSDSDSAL
UniProt Q9H9S4: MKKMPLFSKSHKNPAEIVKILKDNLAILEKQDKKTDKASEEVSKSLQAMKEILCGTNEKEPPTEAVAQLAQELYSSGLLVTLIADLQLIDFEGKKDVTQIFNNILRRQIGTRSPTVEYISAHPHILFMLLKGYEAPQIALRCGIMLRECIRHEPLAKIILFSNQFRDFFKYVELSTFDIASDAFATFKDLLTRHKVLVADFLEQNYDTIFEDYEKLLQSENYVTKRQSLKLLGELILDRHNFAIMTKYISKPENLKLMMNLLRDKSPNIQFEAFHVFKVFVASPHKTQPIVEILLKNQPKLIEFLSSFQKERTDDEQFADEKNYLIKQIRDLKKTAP
UniProt Q9Y297: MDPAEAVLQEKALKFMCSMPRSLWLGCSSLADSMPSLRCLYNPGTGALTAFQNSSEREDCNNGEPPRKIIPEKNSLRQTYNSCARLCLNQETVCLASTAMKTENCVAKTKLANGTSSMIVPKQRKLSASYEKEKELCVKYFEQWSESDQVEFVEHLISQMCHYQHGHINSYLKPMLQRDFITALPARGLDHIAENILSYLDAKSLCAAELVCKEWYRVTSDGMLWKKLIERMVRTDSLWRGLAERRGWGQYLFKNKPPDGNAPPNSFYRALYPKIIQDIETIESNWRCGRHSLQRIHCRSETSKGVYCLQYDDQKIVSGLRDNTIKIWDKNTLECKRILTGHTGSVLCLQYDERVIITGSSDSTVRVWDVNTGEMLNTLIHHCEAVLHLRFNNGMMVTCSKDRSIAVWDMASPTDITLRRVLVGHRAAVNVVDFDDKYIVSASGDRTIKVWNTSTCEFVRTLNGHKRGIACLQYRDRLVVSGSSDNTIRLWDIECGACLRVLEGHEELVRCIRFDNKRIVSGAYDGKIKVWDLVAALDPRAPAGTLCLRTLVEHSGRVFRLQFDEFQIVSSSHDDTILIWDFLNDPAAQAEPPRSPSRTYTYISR
UniProt P04003: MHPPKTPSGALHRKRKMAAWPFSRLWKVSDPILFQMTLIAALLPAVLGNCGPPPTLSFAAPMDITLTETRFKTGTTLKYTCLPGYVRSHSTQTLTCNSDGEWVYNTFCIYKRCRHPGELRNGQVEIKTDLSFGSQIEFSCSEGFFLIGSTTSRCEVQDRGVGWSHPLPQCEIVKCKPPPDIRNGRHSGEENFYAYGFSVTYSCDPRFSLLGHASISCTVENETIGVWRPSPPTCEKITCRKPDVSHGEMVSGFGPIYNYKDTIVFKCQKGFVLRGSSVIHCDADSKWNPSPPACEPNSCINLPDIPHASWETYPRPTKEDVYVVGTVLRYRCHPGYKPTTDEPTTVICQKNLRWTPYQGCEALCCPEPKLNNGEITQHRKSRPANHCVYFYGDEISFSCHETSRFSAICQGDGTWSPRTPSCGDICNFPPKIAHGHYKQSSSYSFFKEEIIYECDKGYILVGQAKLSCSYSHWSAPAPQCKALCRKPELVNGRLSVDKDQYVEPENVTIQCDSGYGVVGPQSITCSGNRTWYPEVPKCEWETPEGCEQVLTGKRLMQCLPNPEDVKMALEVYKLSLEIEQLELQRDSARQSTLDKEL
UniProt Q16581: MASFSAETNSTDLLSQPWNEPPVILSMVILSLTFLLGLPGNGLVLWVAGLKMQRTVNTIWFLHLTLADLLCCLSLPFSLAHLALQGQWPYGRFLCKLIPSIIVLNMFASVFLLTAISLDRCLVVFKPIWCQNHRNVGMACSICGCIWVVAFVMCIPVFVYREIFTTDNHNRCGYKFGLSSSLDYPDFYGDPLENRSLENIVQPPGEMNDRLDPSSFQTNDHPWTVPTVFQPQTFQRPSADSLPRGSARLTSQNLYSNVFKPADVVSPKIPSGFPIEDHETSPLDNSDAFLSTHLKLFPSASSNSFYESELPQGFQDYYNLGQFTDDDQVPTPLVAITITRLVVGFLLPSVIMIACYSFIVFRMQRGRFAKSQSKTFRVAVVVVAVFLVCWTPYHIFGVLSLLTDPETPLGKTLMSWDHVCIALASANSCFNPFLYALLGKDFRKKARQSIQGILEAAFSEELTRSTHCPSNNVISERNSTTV
UniProt Q5U649: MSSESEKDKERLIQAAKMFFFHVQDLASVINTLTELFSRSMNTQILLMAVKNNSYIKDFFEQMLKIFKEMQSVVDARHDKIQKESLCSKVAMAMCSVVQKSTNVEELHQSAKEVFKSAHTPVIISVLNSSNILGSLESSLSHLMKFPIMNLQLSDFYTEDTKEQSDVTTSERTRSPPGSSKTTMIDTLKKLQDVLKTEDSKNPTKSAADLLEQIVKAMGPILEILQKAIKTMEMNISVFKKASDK
UniProt Q0VDD7: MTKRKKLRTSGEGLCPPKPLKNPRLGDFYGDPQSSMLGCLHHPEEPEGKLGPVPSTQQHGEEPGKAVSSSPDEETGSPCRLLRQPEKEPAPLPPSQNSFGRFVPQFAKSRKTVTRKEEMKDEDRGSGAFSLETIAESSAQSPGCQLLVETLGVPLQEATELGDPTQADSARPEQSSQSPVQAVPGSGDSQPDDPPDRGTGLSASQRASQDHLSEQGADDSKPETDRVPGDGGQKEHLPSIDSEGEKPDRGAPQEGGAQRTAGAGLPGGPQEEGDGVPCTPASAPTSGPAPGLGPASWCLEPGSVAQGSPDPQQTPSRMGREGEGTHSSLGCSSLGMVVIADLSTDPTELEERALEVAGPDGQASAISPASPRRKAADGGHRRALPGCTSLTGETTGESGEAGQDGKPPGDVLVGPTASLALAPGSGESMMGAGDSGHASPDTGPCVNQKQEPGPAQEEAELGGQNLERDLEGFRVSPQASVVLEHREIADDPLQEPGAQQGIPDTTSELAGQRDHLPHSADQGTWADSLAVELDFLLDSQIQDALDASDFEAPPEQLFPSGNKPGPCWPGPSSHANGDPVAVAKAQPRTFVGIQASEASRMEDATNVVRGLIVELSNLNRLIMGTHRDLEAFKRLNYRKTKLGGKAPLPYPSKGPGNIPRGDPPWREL
UniProt Q9GZU0: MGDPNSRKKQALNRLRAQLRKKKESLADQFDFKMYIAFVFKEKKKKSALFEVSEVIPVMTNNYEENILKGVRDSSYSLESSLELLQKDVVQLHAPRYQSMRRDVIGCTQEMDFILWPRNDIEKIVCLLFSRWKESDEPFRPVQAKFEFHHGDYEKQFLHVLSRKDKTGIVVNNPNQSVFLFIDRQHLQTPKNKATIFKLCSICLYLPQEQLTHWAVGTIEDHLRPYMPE
UniProt Q96F05: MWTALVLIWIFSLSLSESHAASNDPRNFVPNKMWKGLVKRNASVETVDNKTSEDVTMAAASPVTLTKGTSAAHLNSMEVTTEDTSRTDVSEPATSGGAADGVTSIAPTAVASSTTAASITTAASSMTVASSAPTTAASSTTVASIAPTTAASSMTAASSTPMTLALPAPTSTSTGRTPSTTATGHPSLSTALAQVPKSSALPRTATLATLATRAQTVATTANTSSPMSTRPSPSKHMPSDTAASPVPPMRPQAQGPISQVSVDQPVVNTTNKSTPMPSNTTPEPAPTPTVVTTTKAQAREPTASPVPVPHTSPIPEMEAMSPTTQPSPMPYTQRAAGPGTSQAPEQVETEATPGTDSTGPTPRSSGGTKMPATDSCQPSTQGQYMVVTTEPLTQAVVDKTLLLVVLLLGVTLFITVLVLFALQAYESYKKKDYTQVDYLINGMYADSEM
UniProt Q96GV9: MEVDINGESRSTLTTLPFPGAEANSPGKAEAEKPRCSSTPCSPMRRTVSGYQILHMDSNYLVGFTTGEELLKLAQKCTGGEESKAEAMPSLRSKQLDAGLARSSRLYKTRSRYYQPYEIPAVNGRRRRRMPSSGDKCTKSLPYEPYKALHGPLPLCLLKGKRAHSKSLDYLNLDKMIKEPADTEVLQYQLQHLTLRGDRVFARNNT

crizotinib = compound: C[C@@H](Oc1cc(-c2cnn(C3CCNCC3)c2)cnc1N)c1c(Cl)ccc(F)c1Cl [crizotinib]
In short: as §1

duvelisib = compound: C[C@H](Nc1ncnc2nc[nH]c12)c1cc2cccc(Cl)c2c(=O)n1-c1ccccc1 [duvelisib]
In short: as §1

doramapimod = compound: Cc1ccc(-n2nc(C(C)(C)C)cc2NC(=O)Nc2ccc(OCCN3CCOCC3)c3ccccc23)cc1 [doramapimod]
In short: as §1

dasatinib = compound: Cc1nc(Nc2ncc(C(=O)Nc3c(C)cccc3Cl)s2)cc(N2CCN(CCO)CC2)n1 [dasatinib]
In short: as §1

[1] = compound: Cn1cc(-c2ccc3c(c2)CCN3C(=O)Cc2cccc(C(F)(F)F)c2)c2c(N)ncnc21
In short: as §1

quisinostat = compound: Cn1cc(CNCC2CCN(c3ncc(C(=O)NO)cn3)CC2)c2ccccc21 [quisinostat]
In short: as §1

[2] = compound: NC(=O)Nc1cc(-c2cccc(F)c2)sc1C(=O)N[C@H]1CCCNC1
In short: as §1

[3] = compound: NC(=O)c1cnc(N[C@@H]2CCCC[C@@H]2N)nc1Nc1cccc(-n2nccn2)c1
In short: as §1

[4] = compound: NC1(c2ccc(-c3nc4ccn5c(=O)[nH]nc5c4cc3-c3ccccc3)cc2)CCC1
In short: as §1

pictilisib = compound: CS(=O)(=O)N1CCN(Cc2cc3nc(-c4cccc5[nH]ncc45)nc(N4CCOCC4)c3s2)CC1 [pictilisib]
In short: as §1

[5] = compound: C[C@H](C1=CC=C(C=C1)C(=O)NC2=C3C=CNC3=NC=C2)N
In short: as §1

gandotinib = compound: Cc1cc(Nc2cc(CN3CCOCC3)c3nc(C)c(Cc4ccc(Cl)cc4F)n3n2)n[nH]1 [gandotinib]
In short: as §1

bafetinib = compound: Cc1ccc(NC(=O)c2ccc(CN3CC[C@H](N(C)C)C3)c(C(F)(F)F)c2)cc1Nc1nccc(-c2cncnc2)n1 [bafetinib]
In short: as §1

[6] = compound: Cc1cccc(CC(=O)N2CCc3c2ccc(-c2cn(C)c4ncnc(N)c24)c3F)n1
In short: as §1

nilotinib = compound: Cc1cn(-c2cc(NC(=O)c3ccc(C)c(Nc4nccc(-c5cccnc5)n4)c3)cc(C(F)(F)F)c2)cn1 [nilotinib]
In short: as §1

[7] = compound: Cc1nc(Nc2n[nH]c3c2CN(C(=O)N[C@H](CN(C)C)c2ccccc2)C3(C)C)c2sccc2n1
In short: as §1

[8] = compound: Cc1ncc(-c2ccnc(Nc3ccc(S(C)(=O)=O)cc3)n2)n1C(C)C
In short: as §1

tipifarnib = compound: Cn1cncc1[C@@](N)(c1ccc(Cl)cc1)c1ccc2c(c1)c(-c1cccc(Cl)c1)cc(=O)n2C [tipifarnib]
In short: as §1

tozasertib = compound: Cc1cc(Nc2cc(N3CCN(C)CC3)nc(Sc3ccc(NC(=O)C4CC4)cc3)n2)n[nH]1 [tozasertib]
In short: as §1

Measured: log2 fold change

CAPNS1 (UniProt K7ES78)
inactive: lapatinib 0.162 | crizotinib 0.158 | duvelisib 0.17 | doramapimod -0.08 | dasatinib -0.027 | [1] -0.006 | quisinostat 0.247 | [2] -0.002 | [3] 0.053 | [4] -0.099

C18orf21 (UniProt Q32NC0)
inactive: lapatinib -0.153 | pictilisib -0.071 | crizotinib -0.005 | [5] -0.005 | duvelisib 0 | gandotinib -0.063 | doramapimod -0.086 | bafetinib 0.046 | [6] 0.111 | nilotinib -0.025 | [7] 0.024 | dasatinib 0.059 | [8] 0.158 | [1] -0.018 | quisinostat -0.018 | tipifarnib 0.008 | [2] 0.041 | [3] -0.032 | [4] -0.019

CAND1 (UniProt F5H6I6)
inactive: lapatinib -0.043 | pictilisib -0.07 | crizotinib -0.127 | duvelisib -0.022 | tozasertib -0.077 | doramapimod -0.124 | bafetinib -0.042 | nilotinib 0.069 | [7] -0.144 | dasatinib 0.011 | [8] -0.05 | [1] 0.06 | quisinostat -0.083 | tipifarnib 0.038 | [2] 0.044 | [3] 0.058 | [4] -0.157

C22orf39 (UniProt Q6P5X5)
inactive: lapatinib -0.173 | pictilisib -0.014 | [5] 0.022 | duvelisib 0.043 | gandotinib -0.003 | tozasertib 0.023 | bafetinib -0.089 | [6] 0.082 | nilotinib 0.092 | [7] 0.027 | dasatinib -0.154 | [8] -0.026 | [1] 0.018 | tipifarnib -0.074 | [3] 0.081

CABIN1 (UniProt Q9Y6J0)
inactive: lapatinib -0.026 | pictilisib -0.006 | [5] -0.138 | duvelisib -0.094 | gandotinib -0.036 | tozasertib 0.062 | bafetinib -0.155 | [6] 0.124 | nilotinib 0.002 | [7] 0.081 | dasatinib -0.051 | [8] 0.134 | [1] 0.02 | tipifarnib -0.091 | [3] -0.149 | [4] 0.017

C11orf96 (UniProt Q7Z7L8)
inactive: lapatinib -0.044 | pictilisib -0.026 | crizotinib -0.004 | [5] -0.025 | duvelisib -0.041 | gandotinib 0.036 | doramapimod -0.073 | bafetinib -0.027 | [6] 0.107 | nilotinib -0.071 | [7] 0.032 | dasatinib 0.006 | [8] 0.075 | [1] -0.031 | quisinostat -0.055 | tipifarnib 0.025 | [2] 0.059 | [3] -0.038 | [4] 0.014

CAB39L (UniProt Q9H9S4)
inactive: lapatinib -0.017 | pictilisib -0.048 | crizotinib -0.092 | [5] -0.005 | duvelisib 0.079 | gandotinib -0.037 | doramapimod -0.008 | bafetinib -0.008 | [6] 0.057 | nilotinib 0.033 | [7] -0.056 | dasatinib -0.138 | [8] -0.02 | [1] -0.018 | quisinostat -0.147 | tipifarnib 0.001 | [2] 0.028 | [3] -0.01 | [4] -0.029

CANX (UniProt D6RHJ3)
inactive: lapatinib -0.017 | nilotinib -0.055 | [7] 0.129 | [8] 0.191 | tipifarnib 0.126 | [3] -0.103

BTRC (UniProt Q9Y297)
inactive: lapatinib 0.01 | pictilisib -0.008 | [5] 0.018 | gandotinib 0.073 | tozasertib -0.01 | bafetinib -0.027 | [6] 0.065 | nilotinib 0.006 | [7] 0.02 | [8] -0.003 | tipifarnib 0.02 | [3] 0.059 | [4] 0.031

C1orf167 isoform 2 (UniProt Q5SNV9)
inactive: lapatinib -0.046 | pictilisib 0.02 | crizotinib -0.201 | [5] -0.159 | duvelisib 0.015 | gandotinib 0.112 | doramapimod 0.256 | bafetinib -0.297 | [6] 0.279 | nilotinib -0.193 | [7] 0 | dasatinib -0.051 | [8] -0.013 | [1] -0.047 | quisinostat -0.304 | tipifarnib -0.053 | [2] 0.055 | [3] 0.052 | [4] -0.011

CA2 (UniProt P00918)
inactive: lapatinib 0.002 | pictilisib -0.035 | crizotinib 0.07 | duvelisib 0.058 | tozasertib -0.057 | doramapimod -0.013 | bafetinib 0.034 | [7] -0.021 | dasatinib -0.076 | [8] 0.029 | [1] -0.042 | quisinostat 0.003 | tipifarnib 0.013 | [2] 0.054 | [3] 0.054 | [4] -0.069

C4BPA (UniProt P04003)
inactive: lapatinib -0.035 | crizotinib 0.089 | [5] -0.051 | duvelisib -0.117 | gandotinib 0.084 | doramapimod 0.056 | [6] 0.034 | nilotinib 0.042 | [7] 0.036 | dasatinib -0.12 | [8] -0.047 | [1] -0.259 | quisinostat -0.129 | tipifarnib -0.009 | [2] -0.003 | [3] 0.059 | [4] 0.044

Two successive entries out of the list so far, for reference:
C1orf167 isoform 2 (UniProt Q5SNV9)
inactive: lapatinib -0.046 | pictilisib 0.02 | crizotinib -0.201 | [5] -0.159 | duvelisib 0.015 | gandotinib 0.112 | doramapimod 0.256 | bafetinib -0.297 | [6] 0.279 | nilotinib -0.193 | [7] 0 | dasatinib -0.051 | [8] -0.013 | [1] -0.047 | quisinostat -0.304 | tipifarnib -0.053 | [2] 0.055 | [3] 0.052 | [4] -0.011

CA2 (UniProt P00918)
inactive: lapatinib 0.002 | pictilisib -0.035 | crizotinib 0.07 | duvelisib 0.058 | tozasertib -0.057 | doramapimod -0.013 | bafetinib 0.034 | [7] -0.021 | dasatinib -0.076 | [8] 0.029 | [1] -0.042 | quisinostat 0.003 | tipifarnib 0.013 | [2] 0.054 | [3] 0.054 | [4] -0.069

(listing goes on)

BUD13 (UniProt Q9BRD0)
inactive: pictilisib 0.104 | crizotinib -0.044 | [5] -0.053 | duvelisib 0.08 | gandotinib 0.045 | tozasertib 0.008 | doramapimod 0.014 | bafetinib -0.134 | [6] 0.114 | nilotinib -0.036 | [7] 0.111 | dasatinib -0.094 | [8] 0 | [1] 0.019 | quisinostat -0.044 | tipifarnib 0.028 | [2] -0.014 | [4] -0.019

C19orf44 (UniProt Q9H6X5)
inactive: nilotinib 0.039 | [7] -0.207 | [8] 0.026 | tipifarnib -0.124

C3AR1 (UniProt Q16581)
inactive: pictilisib -0.023 | crizotinib 0.02 | [5] -0.025 | gandotinib 0.043 | doramapimod -0.01 | bafetinib 0.111 | [6] 0.099 | nilotinib -0.026 | [7] 0.286 | [8] -0.111 | quisinostat 0.065 | tipifarnib -0.036 | [2] -0.033

C12orf60 (UniProt Q5U649)
inactive: crizotinib 0.054 | duvelisib 0.063 | doramapimod -0.178 | nilotinib 0.022 | [7] 0.016 | dasatinib 0.148 | [8] 0.061 | [1] -0.098 | quisinostat -0.021 | tipifarnib 0.099 | [2] -0.044 | [4] -0.024

C19orf57 (UniProt Q0VDD7)
inactive: [5] 0.17 | duvelisib 0.06 | gandotinib -0.135 | [6] -0.092 | dasatinib -0.078 | [1] -0.012

C6orf62 (UniProt Q9GZU0)
inactive: crizotinib -0.239 | [5] 0.233 | duvelisib -0.2 | gandotinib -0.16 | doramapimod 0.007 | [6] -0.299 | dasatinib 0.085 | [1] 0.739 | quisinostat 0.161 | [2] 0.211

C11orf24 (UniProt Q96F05)
inactive: crizotinib -0.076 | [5] 0.063 | gandotinib 0.019 | doramapimod -0.013 | [6] -0.185 | quisinostat -0.181 | [2] 0.036

BTN3A3 (UniProt O00478)
inactive: pictilisib -0.051 | crizotinib 0.05 | [5] -0.029 | duvelisib 0.074 | gandotinib 0.019 | doramapimod 0.331 | bafetinib -0.063 | [6] 0.089 | nilotinib -0.275 | [7] -0.295 | dasatinib -0.087 | [8] 0.124 | [1] -0.036 | quisinostat 0.285 | tipifarnib 0.11 | [2] -0.015 | [4] 0.043

C5orf30 (UniProt Q96GV9)
inactive: pictilisib -0.109 | crizotinib 0.06 | [5] 0.08 | duvelisib 0.001 | gandotinib -0.11 | tozasertib -0.036 | doramapimod -0.005 | bafetinib 0.103 | [6] -0.108 | nilotinib -0.061 | [7] 0.042 | dasatinib 0.097 | [8] -0.045 | [1] 0.071 | quisinostat 0.037 | tipifarnib -0.007 | [2] -0.031 | [4] 0.085
